From patent US5795954A, “Factor VIIa inhibitors from Kunitz domain proteins” (Genentech, Inc., priority 1994, dated 1998)
At least one peptide structure holds a part that was inferred or is arguable (an end, a ring closure or a residue). Positions of bridges follow the written chain, without caps; N, C: chain ends. No end group written: not given here.

Sequences of proteins named here, by UniProt entry; tags and fusion partners are left off. Residues count along the entry.
UniProt P00747, 97-580 limits assumed: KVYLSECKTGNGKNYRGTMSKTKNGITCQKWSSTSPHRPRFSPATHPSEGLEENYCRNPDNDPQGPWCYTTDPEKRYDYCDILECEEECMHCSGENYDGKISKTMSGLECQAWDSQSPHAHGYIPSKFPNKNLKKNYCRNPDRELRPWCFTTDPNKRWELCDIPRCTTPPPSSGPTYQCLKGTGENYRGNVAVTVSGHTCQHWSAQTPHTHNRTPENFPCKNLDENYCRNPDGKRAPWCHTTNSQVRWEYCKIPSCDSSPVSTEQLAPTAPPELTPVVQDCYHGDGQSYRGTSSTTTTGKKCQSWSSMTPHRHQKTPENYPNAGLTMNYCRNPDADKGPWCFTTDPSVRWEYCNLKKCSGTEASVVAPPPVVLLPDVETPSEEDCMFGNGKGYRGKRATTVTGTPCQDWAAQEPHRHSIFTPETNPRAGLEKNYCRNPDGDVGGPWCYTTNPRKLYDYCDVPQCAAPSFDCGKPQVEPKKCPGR
UniProt P00747, 581-810 limits assumed: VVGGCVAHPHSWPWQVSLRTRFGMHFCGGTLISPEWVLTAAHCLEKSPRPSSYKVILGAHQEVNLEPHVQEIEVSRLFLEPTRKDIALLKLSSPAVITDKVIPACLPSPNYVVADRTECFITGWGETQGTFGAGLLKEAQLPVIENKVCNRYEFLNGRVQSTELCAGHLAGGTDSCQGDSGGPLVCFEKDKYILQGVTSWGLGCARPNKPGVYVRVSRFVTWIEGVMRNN
UniProt P03951, 19-387 limits assumed: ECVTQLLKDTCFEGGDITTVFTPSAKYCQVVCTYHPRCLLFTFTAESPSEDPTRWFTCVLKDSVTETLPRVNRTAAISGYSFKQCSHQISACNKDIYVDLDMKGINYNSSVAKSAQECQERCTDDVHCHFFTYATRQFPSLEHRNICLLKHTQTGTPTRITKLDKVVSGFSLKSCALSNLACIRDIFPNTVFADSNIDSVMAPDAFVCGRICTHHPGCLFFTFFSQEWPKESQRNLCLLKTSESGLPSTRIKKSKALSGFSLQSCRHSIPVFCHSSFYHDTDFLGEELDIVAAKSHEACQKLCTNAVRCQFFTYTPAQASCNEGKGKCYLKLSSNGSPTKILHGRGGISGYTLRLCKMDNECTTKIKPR
UniProt P03951, 388-625 limits assumed: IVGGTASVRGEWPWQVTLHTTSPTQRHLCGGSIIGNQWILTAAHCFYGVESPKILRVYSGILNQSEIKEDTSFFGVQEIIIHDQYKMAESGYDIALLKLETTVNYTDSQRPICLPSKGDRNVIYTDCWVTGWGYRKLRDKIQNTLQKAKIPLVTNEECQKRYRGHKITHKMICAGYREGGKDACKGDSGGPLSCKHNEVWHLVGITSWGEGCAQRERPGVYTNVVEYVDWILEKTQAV
UniProt P03952, 20-390 limits assumed: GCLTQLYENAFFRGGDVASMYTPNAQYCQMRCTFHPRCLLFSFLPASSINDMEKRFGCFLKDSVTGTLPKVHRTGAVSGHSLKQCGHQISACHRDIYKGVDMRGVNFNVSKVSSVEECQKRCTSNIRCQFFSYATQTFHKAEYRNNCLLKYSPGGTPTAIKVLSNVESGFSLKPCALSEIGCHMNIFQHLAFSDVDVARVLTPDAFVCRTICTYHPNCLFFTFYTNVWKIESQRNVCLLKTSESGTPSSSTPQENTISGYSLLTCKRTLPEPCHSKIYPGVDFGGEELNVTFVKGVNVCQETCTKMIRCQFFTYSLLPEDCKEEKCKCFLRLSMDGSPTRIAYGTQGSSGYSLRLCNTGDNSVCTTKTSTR
UniProt P03952, 391-638 limits assumed: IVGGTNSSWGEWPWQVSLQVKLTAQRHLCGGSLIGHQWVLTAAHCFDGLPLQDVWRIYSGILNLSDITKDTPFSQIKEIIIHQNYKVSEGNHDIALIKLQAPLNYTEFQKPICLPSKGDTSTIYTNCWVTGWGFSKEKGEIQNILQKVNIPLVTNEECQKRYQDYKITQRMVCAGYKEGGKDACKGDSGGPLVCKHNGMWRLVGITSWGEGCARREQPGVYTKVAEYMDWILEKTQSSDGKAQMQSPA

How the values were obtained:
Assay type in all cases: biochemical
plasmin = molecular target: T1, plasmin (Homo sapiens, UniProt P00747); assay: plasmin enzyme inhibition assay (Ki*)
T1 construct: purchased Kabi Vitrum (Sweden)

[1] = test system: normal human plasma, clotting initiated by TF membranes; assay: tissue factor initiated prothrombin time (PT) assay
Experimental: FIG. 6. Prolongation of clotting time in the PT assay in normal human plasma. […] The uninhibited clotting time was 48 sec.
Clotting times were performed using the ACL 300 Research Coagulation Analyzer. For the prothrombin time (PT) assays, the incubation time was set at 120 sec and acquisition time at 120 to 600 sec depending on the expected outcome of the assay. Membranes from 293 cells expressing full length TF (Paborsky, L. R. et al., Biochemistry 28: 8072-8077 [1989]) were premixed with CaCl2. The sample (plasma and inhibitor) and reagent (CaCl2 /TF) were automatically mixed together after a 2 min incubation at 37° C. The clotting time was determined by optical assessment. The total incubation time of inhibitor with plasma before addition of CaCl2 /TF was ca. 5 min. Final concentrations were 2 to 20 μM inhibitor, 3.7 nM TF (0.9 μg/ml by protein content), 22.5 mM CaCl2, and 50% plasma in a total volume of 160 μL.

FXIa = molecular target: T2, FXIa (Homo sapiens, UniProt P03951); assay: FXIa enzyme inhibition assay (Ki*)
T2 construct: Factor XIa (FXIa) is a glycosylated serine protease produced in blood from its zymogen, Factor XI (FXI); purchased Haematologic Technologies Inc. (Essex Jct., Vt.)

plasma kallikrein = molecular target: T3, plasma kallikrein (Homo sapiens, UniProt P03952); assay: plasma kallikrein enzyme inhibition assay (Ki*)
T3 construct: The light chain of kallikrein contains the enzymatic domain; Kallikrein consists of 2 disulfide bonded chains of 43,000 and 33,000-36,000 Da; purchased Enzyme Research Laboratories, Inc. (South Bend, Ind.)

[2] = test system: normal human plasma, clotting initiated by ellagic acid; assay: activated partial thromboplastin time (APTT) assay; details: ca. 7 μM inhibitor
Experimental: FIG. 7. Prolongation of clotting time in the APTT assay in normal human plasma. […] The uninhibited clotting time was 31 sec.
For the activated partial thromboplastin time (APTT) assays, the activation time was set at 120 sec and acquisition time at 300 to 600 sec depending on the expected outcome of the assay. Citrated normal human plasma and inhibitor were incubated together. The sample (plasma and inhibitor) and activator (Instrumentation Laboratories Ellagic acid/Phospholipid mix Test Reagent) were automatically pipetted and incubated together for 2 min at 37° C., then CaCl2 was added and clotting time determined by means of optical assessment. The total incubation time of inhibitor with plasma was ca. 3 min before addition of activator, and 5 min before addition of CaCl2.

VREVCSEQAETGPCRAMISRWYFDVTEGKCAPFFYGGCGGNRNNFDTEEYCMAVCGSA (disulfide 5-55, 14-38, 30-51) [APPI]
inhibition of plasmin (in words) (plasmin): moderate inhibitor | prolongation of clotting time in PT assay ([1]; 10 μM inhibitor, clotting initiated by TF membranes): little effect | prolongation of clotting time in PT assay ([1]; ca. 20 μM inhibitor): 1.5 fold | inhibition of FXIa (in words) (FXIa): potent inhibitor | inhibition of plasma kallikrein (in words) (plasma kallikrein): moderate inhibitor | prolongation of clotting time in APTT assay [2]: ca. 3 fold
